PubChem BioAssay (EPA / NIEHS)
“And” between values parts separate entries of the source, which are not always exact repeats. Equal entries are not always repeated. This list was built around the results that the source calls inconclusive (neither active nor inactive); the mix of calls is not that of the screen. For some of these results: A potency beside an inconclusive call is a rough fit, not a confirmed value. The source made the active and inactive calls. How the source made its calls: active means hit-call score of the fitted dose curve at least 0.9, where 1 is the maximum; inconclusive means response in the unintended direction; inactive means score below 0.9.

Protein sequences, listed by entry. Tags and fused reporters are not part of them. Lines headed by an entry give the natural chain unless they say otherwise; changes in a name come on top.
UniProt Q96RI1: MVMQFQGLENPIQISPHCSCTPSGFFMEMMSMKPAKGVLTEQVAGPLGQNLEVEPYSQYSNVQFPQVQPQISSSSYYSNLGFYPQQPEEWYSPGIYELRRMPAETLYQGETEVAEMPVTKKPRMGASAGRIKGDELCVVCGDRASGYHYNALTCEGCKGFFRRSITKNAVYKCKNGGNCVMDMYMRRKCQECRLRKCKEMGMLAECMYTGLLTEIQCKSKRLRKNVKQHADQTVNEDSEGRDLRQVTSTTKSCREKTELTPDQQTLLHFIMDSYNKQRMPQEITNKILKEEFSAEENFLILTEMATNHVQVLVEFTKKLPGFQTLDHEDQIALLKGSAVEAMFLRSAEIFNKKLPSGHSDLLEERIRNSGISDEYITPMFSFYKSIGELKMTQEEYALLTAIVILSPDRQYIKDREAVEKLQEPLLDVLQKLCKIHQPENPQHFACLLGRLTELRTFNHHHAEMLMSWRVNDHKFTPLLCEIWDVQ
UniProt P37231: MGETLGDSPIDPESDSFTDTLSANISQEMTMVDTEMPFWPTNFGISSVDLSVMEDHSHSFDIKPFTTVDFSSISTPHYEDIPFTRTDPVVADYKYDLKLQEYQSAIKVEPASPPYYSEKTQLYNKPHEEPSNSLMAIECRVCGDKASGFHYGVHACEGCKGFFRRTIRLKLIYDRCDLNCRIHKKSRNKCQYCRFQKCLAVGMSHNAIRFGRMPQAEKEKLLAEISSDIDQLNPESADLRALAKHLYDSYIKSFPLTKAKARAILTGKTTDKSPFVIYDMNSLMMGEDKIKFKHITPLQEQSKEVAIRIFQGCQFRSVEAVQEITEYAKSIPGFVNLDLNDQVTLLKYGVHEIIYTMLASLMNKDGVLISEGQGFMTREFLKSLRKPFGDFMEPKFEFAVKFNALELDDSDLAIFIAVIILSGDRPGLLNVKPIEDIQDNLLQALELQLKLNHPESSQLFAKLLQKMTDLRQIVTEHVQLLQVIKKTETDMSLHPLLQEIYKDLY
UniProt P11473: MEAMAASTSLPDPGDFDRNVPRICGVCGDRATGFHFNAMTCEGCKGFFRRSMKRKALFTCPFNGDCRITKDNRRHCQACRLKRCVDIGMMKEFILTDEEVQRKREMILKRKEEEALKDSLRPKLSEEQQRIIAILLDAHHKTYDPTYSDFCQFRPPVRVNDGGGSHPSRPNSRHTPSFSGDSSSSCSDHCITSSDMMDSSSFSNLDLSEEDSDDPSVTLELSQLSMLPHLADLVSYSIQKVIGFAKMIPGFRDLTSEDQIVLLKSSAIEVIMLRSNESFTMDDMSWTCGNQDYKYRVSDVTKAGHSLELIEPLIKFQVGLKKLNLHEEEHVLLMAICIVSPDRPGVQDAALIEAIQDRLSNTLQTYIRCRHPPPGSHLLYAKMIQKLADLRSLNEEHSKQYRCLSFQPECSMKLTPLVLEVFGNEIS
UniProt P04637, whole entry, looked up: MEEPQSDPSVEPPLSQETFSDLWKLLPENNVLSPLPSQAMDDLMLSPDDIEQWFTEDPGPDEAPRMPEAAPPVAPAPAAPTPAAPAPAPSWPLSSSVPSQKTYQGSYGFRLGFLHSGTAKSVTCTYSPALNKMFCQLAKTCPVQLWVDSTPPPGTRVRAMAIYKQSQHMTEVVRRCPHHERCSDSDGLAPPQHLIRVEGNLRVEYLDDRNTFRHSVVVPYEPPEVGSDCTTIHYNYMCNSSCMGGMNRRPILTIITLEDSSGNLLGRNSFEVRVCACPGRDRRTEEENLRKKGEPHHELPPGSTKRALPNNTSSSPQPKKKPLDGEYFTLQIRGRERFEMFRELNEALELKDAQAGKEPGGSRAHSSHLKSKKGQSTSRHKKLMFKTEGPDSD
UniProt P19793: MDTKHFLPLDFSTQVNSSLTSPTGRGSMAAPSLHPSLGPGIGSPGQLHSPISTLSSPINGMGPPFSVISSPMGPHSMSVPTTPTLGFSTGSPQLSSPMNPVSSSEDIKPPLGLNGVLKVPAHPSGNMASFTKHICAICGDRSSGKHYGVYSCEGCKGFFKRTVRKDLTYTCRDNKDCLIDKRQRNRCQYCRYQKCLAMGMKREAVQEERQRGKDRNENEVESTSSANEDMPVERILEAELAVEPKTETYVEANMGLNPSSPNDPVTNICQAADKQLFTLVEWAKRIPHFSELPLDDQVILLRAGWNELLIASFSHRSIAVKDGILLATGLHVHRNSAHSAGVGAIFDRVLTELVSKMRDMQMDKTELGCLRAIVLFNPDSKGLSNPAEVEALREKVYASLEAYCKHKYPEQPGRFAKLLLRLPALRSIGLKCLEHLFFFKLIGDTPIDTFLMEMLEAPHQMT
UniProt P04150: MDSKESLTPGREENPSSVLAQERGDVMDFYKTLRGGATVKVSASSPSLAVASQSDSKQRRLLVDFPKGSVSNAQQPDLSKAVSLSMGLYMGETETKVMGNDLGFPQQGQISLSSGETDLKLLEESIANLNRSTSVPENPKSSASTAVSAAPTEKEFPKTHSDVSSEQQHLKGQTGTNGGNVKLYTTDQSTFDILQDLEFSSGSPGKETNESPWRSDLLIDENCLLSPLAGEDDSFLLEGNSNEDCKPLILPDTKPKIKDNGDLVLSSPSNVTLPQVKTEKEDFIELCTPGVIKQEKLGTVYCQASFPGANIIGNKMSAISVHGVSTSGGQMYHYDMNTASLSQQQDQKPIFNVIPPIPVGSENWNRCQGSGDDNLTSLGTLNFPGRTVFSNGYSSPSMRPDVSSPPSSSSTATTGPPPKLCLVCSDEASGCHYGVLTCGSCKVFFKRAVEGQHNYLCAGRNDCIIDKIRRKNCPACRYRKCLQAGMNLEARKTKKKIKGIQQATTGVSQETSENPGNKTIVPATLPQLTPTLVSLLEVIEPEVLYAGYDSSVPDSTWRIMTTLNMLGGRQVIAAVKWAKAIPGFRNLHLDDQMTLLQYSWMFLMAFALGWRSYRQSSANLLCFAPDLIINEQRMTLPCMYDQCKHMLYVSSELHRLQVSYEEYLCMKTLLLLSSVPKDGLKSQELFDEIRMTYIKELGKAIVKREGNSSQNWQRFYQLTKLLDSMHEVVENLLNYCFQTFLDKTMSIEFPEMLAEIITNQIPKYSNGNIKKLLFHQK
UniProt O75469: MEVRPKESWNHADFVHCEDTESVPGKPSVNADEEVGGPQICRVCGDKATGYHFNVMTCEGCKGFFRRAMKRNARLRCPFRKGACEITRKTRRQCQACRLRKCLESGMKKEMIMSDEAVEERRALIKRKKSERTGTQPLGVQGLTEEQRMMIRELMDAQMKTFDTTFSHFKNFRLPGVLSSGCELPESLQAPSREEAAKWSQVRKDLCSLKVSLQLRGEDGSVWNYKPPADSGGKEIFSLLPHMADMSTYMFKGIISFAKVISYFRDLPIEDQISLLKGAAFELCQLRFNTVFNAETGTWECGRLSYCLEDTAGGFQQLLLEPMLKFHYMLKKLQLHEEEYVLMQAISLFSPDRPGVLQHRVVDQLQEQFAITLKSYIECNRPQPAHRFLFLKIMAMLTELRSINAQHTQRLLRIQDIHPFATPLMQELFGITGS
UniProt Q03181: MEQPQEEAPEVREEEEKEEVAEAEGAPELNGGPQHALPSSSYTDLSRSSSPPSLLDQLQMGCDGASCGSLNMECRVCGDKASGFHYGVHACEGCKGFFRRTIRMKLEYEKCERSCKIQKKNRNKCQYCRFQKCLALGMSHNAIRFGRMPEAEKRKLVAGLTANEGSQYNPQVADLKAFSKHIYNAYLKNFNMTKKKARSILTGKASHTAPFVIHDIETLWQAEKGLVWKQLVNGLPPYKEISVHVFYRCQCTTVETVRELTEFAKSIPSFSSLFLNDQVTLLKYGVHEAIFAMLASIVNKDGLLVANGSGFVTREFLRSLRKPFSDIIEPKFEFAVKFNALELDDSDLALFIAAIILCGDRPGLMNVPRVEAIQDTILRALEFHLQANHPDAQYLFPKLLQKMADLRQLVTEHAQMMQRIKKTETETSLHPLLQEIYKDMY

Columns and labels:
[1] = biological target: Bile acid receptor (Homo sapiens) (UniProt Q96RI1); experiment: ATG_FXR_TRANS: Attagene TRANS-FACTORIAL HepG2 Assay for Farnesoid X Receptor (FXR) (AID 2282979); details: HepG2 Attagene TRANS FXR-GAL4 reporter transcription;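 further: hits raise reporter mRNA above DMSO so AC50 marks FXR activation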
In short: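 HepG2 cells were transiently transfected with GAL4-UAS reporters driven by chimeric NR-Gal4 proteins and dosed for 24 h. Reporter mRNA was quantified by RT-PCR, fluorescent labelling, HpaI digestion and capillary electrophoresis, with gain of signal scored versus DMSO.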

[2] = ATG_M_06_TRANS: Attagene TRANS-FACTORIAL HepG2 Assay for M06 Transcription Factor (Internal Marker) (AID 2282983); details: HepG2 Attagene TRANS M06 internal marker reporter;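 on AC50: potency for rise in reporter mRNA above DMSO baseline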
In short: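 HepG2 cells transiently transfected with GAL4-UAS multiple reporter units, dosed 24 h. Reporter RNA reverse-transcribed, PCR-amplified, 6-FAM-labeled, HpaI-digested and quantified by capillary electrophoresis; this internal-marker signal fitted upward relative to DMSO.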

[3] = biological target: Peroxisome proliferator-activated receptor gamma (Homo sapiens) (UniProt P37231); experiment: ATG_PPARg_TRANS: Attagene TRANS-FACTORIAL HepG2 Assay for human Peroxisome Proliferator-activated Receptor-gamma (PPARg) (AID 2283007)
In short: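 Multiplexed reporter transcription units in HepG2, 24 h dosing, reporter transcripts quantified by fluorescent RT-PCR and capillary electrophoresis. Increase over DMSO scored.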

[4] = biological target: human Vitamin D Receptor (VDR), VDR (gene 7421) (UniProt P11473); experiment: ATG_VDR_TRANS: Attagene TRANS-FACTORIAL HepG2 Assay for human Vitamin D Receptor (VDR) (AID 2283022)
In short: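 HepG2 cells were transiently transfected with GAL4-UAS reporter units and a chimeric VDR-Gal4 construct, then dosed for 24 hours. Reporter mRNA was quantified by RT-PCR, fluorescent labeling, HpaI digestion and capillary electrophoresis; gain of signal analysed vs DMSO.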

[5] = biological target: Cellular tumor antigen p53 (Homo sapiens) (UniProt P04637); experiment: TOX21_p53_BLA_p3_ratio: Tox21 HCT-116 p53 Agonism Beta-lactamase Assay, Ratio, Phase 3 (AID 2283596)
In short: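 HCT116 p53-bla cells (4000/well) given compound in DMSO (217-fold dilution) after 5 h, incubated 16 h at 37C. CCF4-AM substrate 2 h at room temperature; 460/530 nm emission ratio, gain fitted against DMSO.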

[6] = TOX21_p53_BLA_p4_viability: Viability Assessment in the Tox21 HCT-116 p53 Agonism Beta-lactamase Assay, Phase 4 (AID 2283597);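 further: hits lower the luminescence signal meaning cytotoxicity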
In short: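 HCT-116 p53-bla cells, 4000/well, dosed after 5 h attachment and incubated 16 h at 37 °C, 5% CO2. Viability from CellTiter-Glo ATP luminescence after 30 min at room temperature, taken after the beta-lactamase read; loss of signal indicates cytotoxicity.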

[7] = biological target: Cellular tumor antigen p53 (Homo sapiens) (UniProt P04637); experiment: TOX21_p53_BLA_p5_ratio: Tox21 HCT-116 p53 Agonism Beta-lactamase Assay, Ratio, Phase 5 (AID 2283599)
In short: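 HCT-116 cells carrying a p53-inducible beta-lactamase reporter were seeded at 4000 cells/well and dosed after 5 h with compound in DMSO (217-fold dilution). After 16 h at 37C, CCF4-AM substrate was added for 2 h, and the 460/530 nm emission ratio was scored as gain-of-signal versus DMSO.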

[8] = TOX21_p53_BLA_p5_viability: Viability Assessment in the Tox21 HCT-116 p53 Agonism Beta-lactamase Assay, Phase 5 (AID 2283600)
In short: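 HCT-116 p53 beta-lactamase reporter cells, 4000/well, were exposed to compound (pin transfer, 217-fold dilution) for 16 hours at 37C. Cellular ATP was read by CellTiter-Glo luminescence after 30 min at room temperature.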

[9] = biological target: Cellular tumor antigen p53 (Homo sapiens) (UniProt P04637); experiment: TOX21_p53_BLA_p4_ratio: Tox21 HCT-116 p53 Agonism Beta-lactamase Assay, Ratio, Phase 4 (AID 2283601)
In short: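 HCT116 cells carrying an inducible beta-lactamase reporter were plated at 4000 cells/well, rested 5 h, then exposed to compounds in DMSO (217-fold dilution) for 16 h at 37C. CCF4-AM substrate was loaded 2 h at room temperature; 460/530 nm emission ratio scored gain-of-signal versus DMSO.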

[10] = biological target: Cellular tumor antigen p53 (Homo sapiens) (UniProt P04637); experiment: TOX21_p53_BLA_p2_ratio: Tox21 HCT-116 p53 Agonism Beta-lactamase Assay, Ratio, Phase 2 (AID 2283592)
In short: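 HCT-116 cells with p53-responsive beta-lactamase reporter, 4000 cells/well, preincubated 5 h, then compound in DMSO (217-fold dilution) for 16 h at 37C. CCF4-AM substrate 2 h at room temperature; 460/530 nm emission ratio fitted upward versus DMSO.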

[11] = ACEA_ER_AUC_viability: ACEA Biosciences xCELLigence Real-Time Cell Analysis on Estrogen Receptor Agonism for Viability (AID 2283782);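 further: continuous compound exposure with impedance area under curve over 80 h; hit means loss of impedance signal meaning reduced cell growth or viability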
In short: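 T-47D human breast cells in phenol red-free RPMI1640 with 10% charcoal-stripped FBS were dosed with an 8-point 1:4 dilution series from 100 uM top final concentration, in duplicate. Impedance-based growth was followed for 80 h; AUC analysed versus DMSO.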

[12] = biological target: Retinoic acid receptor RXR-alpha (Homo sapiens) (UniProt P19793); experiment: OT_NURR1_NURR1RXRa_0480: Odyssey Thera (OT) 8-hour HEK293T Protein Complementation Assay for Nurr1/retinoid X receptor (RXR) (AID 2283385)
In short: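 HEK293T cells expressing Nurr1 and RXRα fused to reporter fragments were dosed with compound for 8 hours. Complex formation was read as fluorescence intensity and analysed as gain of signal against DMSO as baseline.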

[13] = biological target: Retinoic acid receptor RXR-alpha (Homo sapiens) (UniProt P19793); experiment: OT_NURR1_NURR1RXRa_1440: Odyssey Thera (OT) 24-hour HEK293T Protein Complementation Assay for Nurr1/retinoid X receptor (RXR) (AID 2283386)
In short: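 HEK293T cells were dosed with compound and read 24 h later by fluorescence intensity in a protein-fragment complementation format, where Nurr1–RXRα interaction reconstitutes a split reporter. Activity was fitted as gain of signal relative to DMSO baseline.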

[14] = ACEA_AR_agonist_AUC_viability: ACEA Biosciences xCELLigence Real-Time Cell Analysis on Androgen Receptor Agonism for Viability (AID 2283775);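 further: viability read 80 hours after compound addition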
In short: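 Read-out is area under the impedance curve at 80 h post-dose in 22Rv1 cells, with DMSO as baseline and signal loss taken as reduced viability. Compounds ran in duplicate from 100 uM final.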

[15] = ATG_XTT_Cytotoxicity: Cytotoxicity Assessment in the Attagene TRANS-FACTORIAL HepG2 Assay (AID 2283584)
In short: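 HepG2 cells transiently transfected with GAL4-UAS multiple reporter units, dosed 24 h; cytotoxicity read by XTT as loss of signal versus DMSO baseline.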

[16] = biological target: Glucocorticoid receptor (Homo sapiens) (UniProt P04150); experiment: ATG_GR_TRANS: Attagene TRANS-FACTORIAL HepG2 Assay for human Glucocorticoid Receptor (GR) (AID 2282978); details: HepG2 Attagene TRANS GR reporter, mRNA transcription;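 further: activators score as hits since higher reporter transcript over DMSO is fitted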
In short: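 Measurement of GAL4-UAS-driven reporter mRNA in human HepG2 liver cells 24 h post-dosing, using RT-PCR with fluorescent labelling and capillary electrophoresis; the transfected constructs report exogenous NR-GAL4 chimera activity, fitted upward against DMSO.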

[17] = biological target: Nuclear receptor subfamily 1 group I member 2 (Homo sapiens) (UniProt O75469); experiment: ATG_PXR_TRANS: Attagene TRANS-FACTORIAL HepG2 Assay for human Pregnane X Receptor (PXR) (AID 2283008)
In short: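 HepG2 cells transiently transfected with GAL4-UAS reporter units and PXR-Gal4 chimera, exposed 24 h. Reporter mRNA quantified by RT-PCR, fluorescent labelling, HpaI digestion and capillary electrophoresis; gain of signal vs DMSO.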

[18] = biological target: human Peroxisome Proliferator-activated Receptor delta (PPARd), PPARD (gene 5467) (UniProt Q03181); experiment: ATG_PPARd_TRANS: Attagene TRANS-FACTORIAL HepG2 Assay for human Peroxisome Proliferator-activated Receptor delta (PPARd) (AID 2283002)
In short: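 Measured quantity: GAL4-UAS reporter transcript induction in HepG2 after 24 h chemical dosing, with NR-Gal4 chimeras supplied by transient transfection. Detection by RT-PCR and capillary electrophoresis; upward fit against DMSO.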

Measured: AC50

C=C(C)C1CC=C(C)C(OC(C)=O)C1 (stereo not given)
inconclusive: [1] 100 µM | [2] 100 µM | [5] 31.7 µM | [6] 46.1 µM and 45.9 µM | [7] 46.1 µM and 45.9 µM | [8] 46.1 µM and 1.74 nM | [9] 46.1 µM and 45.9 µM
inactive: [3] | [4]

CCCO[Si](OCCC)(OCCC)OCCC
inconclusive: [12] 50 µM | [13] 50 µM | [10] 46.1 µM | [5] 79 µM | [7] 46.1 µM | [14] 0.213 µM | [11] 50 µM
inactive: [4] | [8]

COc1ccc(Nc2ccccc2)c(C)c1
inactive: [15] | [6] | [8] | [9]

CCN(CC)c1cccc(C)c1
inconclusive: [1] 1.4 µM | [2] 100 µM | [3] 100 µM

C/C=C(\C)C(=O)OCc1ccccc1
inactive: [10] | [5]
inconclusive: [7] 46.1 µM | [11] 50 µM

C=C(C)CNCC
inactive: [16] | [10] | [6]
inconclusive: [3] 100 µM | [10] 45.5 µM | [6] 46.1 µM | [7] 45.5 µM | [8] 46.1 µM and 45.5 µM | [9] 45.5 µM

Oc1ccc2cc(SSc3ccc4cc(O)ccc4c3)ccc2c1
inconclusive: [4] 100 µM | [14] 0.329 µM
inactive: [17]
active: [12] 78.7 µM | [13] 19.7 µM

COc1cc(C=O)ccc1OC(=O)C(C)C
inactive: [17] | [10]
inconclusive: [18] 176 µM | [6] 46.1 µM | [8] 46.1 µM
